Results on one substance are retold here after article PMC5134000.

Chains of the proteins cited; added tags and fusions are not shown.
UniProt Q9H2X6: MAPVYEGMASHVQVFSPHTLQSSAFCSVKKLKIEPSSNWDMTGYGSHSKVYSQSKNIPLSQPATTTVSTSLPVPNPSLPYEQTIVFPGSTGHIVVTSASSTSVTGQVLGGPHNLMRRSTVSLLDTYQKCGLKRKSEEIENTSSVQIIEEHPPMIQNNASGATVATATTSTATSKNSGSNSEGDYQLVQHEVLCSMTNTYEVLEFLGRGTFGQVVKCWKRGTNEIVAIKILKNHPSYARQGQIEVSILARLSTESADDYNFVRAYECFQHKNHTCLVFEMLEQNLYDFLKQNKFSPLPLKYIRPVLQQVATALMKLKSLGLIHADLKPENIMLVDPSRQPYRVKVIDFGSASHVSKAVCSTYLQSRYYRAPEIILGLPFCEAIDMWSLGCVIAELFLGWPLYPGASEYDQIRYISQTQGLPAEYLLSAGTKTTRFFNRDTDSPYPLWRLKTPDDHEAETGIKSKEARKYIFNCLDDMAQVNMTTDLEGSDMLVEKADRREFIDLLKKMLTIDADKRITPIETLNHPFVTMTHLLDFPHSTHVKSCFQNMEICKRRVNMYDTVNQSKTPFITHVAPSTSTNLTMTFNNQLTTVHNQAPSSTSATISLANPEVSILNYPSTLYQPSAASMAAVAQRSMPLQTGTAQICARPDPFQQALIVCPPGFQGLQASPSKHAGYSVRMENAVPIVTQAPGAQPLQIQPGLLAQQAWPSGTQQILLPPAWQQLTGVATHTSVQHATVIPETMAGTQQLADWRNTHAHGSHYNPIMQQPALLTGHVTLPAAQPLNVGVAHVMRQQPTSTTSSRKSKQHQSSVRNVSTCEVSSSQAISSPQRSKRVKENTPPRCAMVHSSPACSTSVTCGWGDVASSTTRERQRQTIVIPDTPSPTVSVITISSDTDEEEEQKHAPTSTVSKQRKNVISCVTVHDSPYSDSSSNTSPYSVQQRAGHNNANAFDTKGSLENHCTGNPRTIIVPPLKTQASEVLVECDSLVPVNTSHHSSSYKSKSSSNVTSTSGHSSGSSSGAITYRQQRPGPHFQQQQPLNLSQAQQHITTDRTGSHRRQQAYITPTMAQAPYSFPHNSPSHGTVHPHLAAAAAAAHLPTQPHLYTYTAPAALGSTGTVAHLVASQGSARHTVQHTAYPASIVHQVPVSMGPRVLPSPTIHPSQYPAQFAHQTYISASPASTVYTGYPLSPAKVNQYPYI
UniProt P09874: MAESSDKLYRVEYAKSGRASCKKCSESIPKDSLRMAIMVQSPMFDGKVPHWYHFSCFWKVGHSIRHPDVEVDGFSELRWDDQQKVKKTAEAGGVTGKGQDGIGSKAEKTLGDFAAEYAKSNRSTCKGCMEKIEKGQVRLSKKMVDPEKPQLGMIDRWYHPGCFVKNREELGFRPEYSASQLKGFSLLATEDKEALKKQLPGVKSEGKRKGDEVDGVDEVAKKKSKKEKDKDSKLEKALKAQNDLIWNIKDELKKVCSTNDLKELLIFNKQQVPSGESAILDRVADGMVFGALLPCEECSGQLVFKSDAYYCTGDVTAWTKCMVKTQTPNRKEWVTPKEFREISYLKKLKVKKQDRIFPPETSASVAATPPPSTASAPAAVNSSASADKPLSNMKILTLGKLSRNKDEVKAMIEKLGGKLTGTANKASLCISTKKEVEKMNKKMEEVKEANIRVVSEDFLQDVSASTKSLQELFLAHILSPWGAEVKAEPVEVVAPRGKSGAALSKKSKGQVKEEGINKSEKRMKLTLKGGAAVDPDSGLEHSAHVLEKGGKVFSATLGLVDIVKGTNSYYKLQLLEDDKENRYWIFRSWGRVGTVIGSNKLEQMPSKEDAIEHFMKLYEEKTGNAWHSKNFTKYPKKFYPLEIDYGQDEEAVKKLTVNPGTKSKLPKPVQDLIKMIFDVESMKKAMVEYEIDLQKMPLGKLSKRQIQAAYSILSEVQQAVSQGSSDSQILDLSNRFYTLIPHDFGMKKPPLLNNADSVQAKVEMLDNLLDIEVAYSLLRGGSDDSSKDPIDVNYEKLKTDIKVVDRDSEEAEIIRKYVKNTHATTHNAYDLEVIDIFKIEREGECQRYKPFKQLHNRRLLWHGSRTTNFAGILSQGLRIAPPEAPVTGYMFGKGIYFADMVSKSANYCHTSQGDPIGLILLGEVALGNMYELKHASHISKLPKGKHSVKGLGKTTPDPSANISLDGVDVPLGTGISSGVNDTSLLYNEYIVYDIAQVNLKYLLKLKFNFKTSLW

No constants are given. Whether binding was seen depends on the method and setting. Binding seen in cells or lysates may run through a third protein. Some binding calls cover weakened binding; strength is not graded here.

The experiment deals with endogenous HIPK2 (human (endogenous in HEK 293)) (UniProt Q9H2X6). Put plainly: co-IP; HEK 293 cells, transfected tagged and/or endogenous proteins; high-salt lysis buffer (50 mM Tris/HCl pH 7.5, 1% Nonidet P-40, 300 mM NaCl, 150 mM KCl, 5 mM EDTA) diluted with lysis buffer without NaCl and KCl; antibodies and protein A-Sepharose overnight at 4 °C; in some panels cells treated with MG132 (5 uM, 10 h), siHSP70, siPARP1 or doxorubicin (2 ug/ml).

“endogenous PARP1 (poly(ADP-ribose) polymerase 1) (from UniProt P09874 1-1014) (enzyme)”: the binding result was “binds”.
